Measurements as given in publication PMC8031463.
These are yes or no findings as the source states them, for the method shown. Binding can be weak; no strength is given. Sequences can lack the tags named with a protein.

Molecular target: T1, 4-myc-Cerulean-AVR1 (Gal4 binding domain fusion) (Phytophthora infestans) (UniProt D0NVB5)
T1 sequence: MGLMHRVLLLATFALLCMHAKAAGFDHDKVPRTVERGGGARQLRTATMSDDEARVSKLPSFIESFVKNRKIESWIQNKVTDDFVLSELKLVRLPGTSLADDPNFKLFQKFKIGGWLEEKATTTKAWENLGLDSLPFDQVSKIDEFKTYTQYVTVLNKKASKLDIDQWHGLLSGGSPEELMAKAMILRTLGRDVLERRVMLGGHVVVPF
Test: two-hybrid

Row | Substance | binding
1 | Physcomitrium patens Sec5b (Gal4 activation domain fusion) | binds
2 | Physcomitrium patens Sec5d (Gal4 activation domain fusion) | binds
